Measurements published in US20080311667A1, “Exogenous Markers for Oxidative Stress” (priority 2005, published 2008).

Key:
[1] = system: blood from diabetic patients before and after PJ supplementation; test: Effect of diabetic patients' blood before and after 1 week of pomegranate juice (PJ) on TCL oxidation; parameters: species or system human; conditions: for TL-OOH vs. TL total amount / TL-epoxy vs. TL total amount: diabetic patients; for 4β oxysterol vs. cholesterol total amount / 7-keto oxysterol vs. cholesterol total amount / 7α oxysterol vs. cholesterol total amount / 7β oxysterol vs. cholesterol total amount / 25-OH oxysterol vs. cholesterol total amount / α-epoxy oxysterol vs. cholesterol total amount / β-epoxy oxysterol vs. cholesterol total amount: blood cells of diabetic patients
[2] = system: blood from Parkinson's patients; test: Effect of Parkinson patients' blood on TCL oxidation; parameters: species or system human

## CCCCCC=CCC=CCCCCCCCC(=O)NC(Cc1ccc(O)cc1)C(=O)OC1CCC2(C)C(=CCC3C2CCC2(C)C(C(C)CCCC(C)C)CCC32)C1 (stereo not shown) [TCL, N-linoleyl tyrosine cholesteryl ester]
[1]; Cells, After PJ (1 week)
  TL-OOH vs. TL total amount: 0.313 µM
  TL-epoxy vs. TL total amount: 0.888 µM
[1]; Cells, Before PJ
  TL-OOH vs. TL total amount: 1.790 µM
  TL-epoxy vs. TL total amount: 23.70 µM
[1]; Serum, After PJ (1 week)
  TL-OOH vs. TL total amount: 0.781 µM
  TL-epoxy vs. TL total amount: 0.521 µM
[1]; Serum, Before PJ
  TL-OOH vs. TL total amount: 18.819 µM
  TL-epoxy vs. TL total amount: 9.112 µM
[1]; After PJ
  4β oxysterol vs. cholesterol total amount: 0 µM
  7-keto oxysterol vs. cholesterol total amount: 0.477 µM
  7α oxysterol vs. cholesterol total amount: 0.007 µM
  7β oxysterol vs. cholesterol total amount: 0.017 µM
  25-OH oxysterol vs. cholesterol total amount: 0 µM
  α-epoxy oxysterol vs. cholesterol total amount: 0.076 µM
  β-epoxy oxysterol vs. cholesterol total amount: 0.106 µM
[1]; Before PJ
  4β oxysterol vs. cholesterol total amount: 0.001 µM
  7-keto oxysterol vs. cholesterol total amount: 1.235 µM
  7α oxysterol vs. cholesterol total amount: 0.007 µM
  7β oxysterol vs. cholesterol total amount: 0.234 µM
  25-OH oxysterol vs. cholesterol total amount: 0 µM
  α-epoxy oxysterol vs. cholesterol total amount: 0.284 µM
  β-epoxy oxysterol vs. cholesterol total amount: 0.140 µM
[2]; Parkinson's patients vs. healthy
  total amount of oxysterol: moderate increase
[2]; cells and serum, Parkinson's patients
  hydroperoxide (TL-OOH): not present at all
[2]; cells and serum, Parkinson's patients vs. healthy
  total amount of Ox-TL: relatively moderate increase
